Laboratory results published in patent publication US20070077603A1 (published 2007).
No constants are given. Whether binding was seen depends on the method and setting. Some binding calls cover weakened binding; strength is not graded here.

The chains behind the UniProt entries cited, without tags or fusion partners. Where a name states a change or a piece, a line headed by the entry shows the natural chain unless it says otherwise.
UniProt P04003: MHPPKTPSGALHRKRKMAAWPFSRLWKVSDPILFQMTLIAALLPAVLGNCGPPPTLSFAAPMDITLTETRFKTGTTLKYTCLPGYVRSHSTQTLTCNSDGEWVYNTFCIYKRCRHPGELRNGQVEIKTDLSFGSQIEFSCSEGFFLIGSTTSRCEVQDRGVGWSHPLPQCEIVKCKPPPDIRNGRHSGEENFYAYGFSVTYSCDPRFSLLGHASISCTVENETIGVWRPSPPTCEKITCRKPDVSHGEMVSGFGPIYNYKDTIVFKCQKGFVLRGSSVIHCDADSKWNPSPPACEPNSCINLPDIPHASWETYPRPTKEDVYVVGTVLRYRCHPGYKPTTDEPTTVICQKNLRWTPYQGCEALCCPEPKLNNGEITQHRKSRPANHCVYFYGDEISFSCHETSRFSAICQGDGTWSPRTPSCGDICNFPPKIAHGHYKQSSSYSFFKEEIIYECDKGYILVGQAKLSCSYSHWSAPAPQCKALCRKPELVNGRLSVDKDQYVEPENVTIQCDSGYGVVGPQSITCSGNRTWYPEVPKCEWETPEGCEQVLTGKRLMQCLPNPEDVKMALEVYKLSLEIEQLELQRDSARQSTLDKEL
UniProt P20851: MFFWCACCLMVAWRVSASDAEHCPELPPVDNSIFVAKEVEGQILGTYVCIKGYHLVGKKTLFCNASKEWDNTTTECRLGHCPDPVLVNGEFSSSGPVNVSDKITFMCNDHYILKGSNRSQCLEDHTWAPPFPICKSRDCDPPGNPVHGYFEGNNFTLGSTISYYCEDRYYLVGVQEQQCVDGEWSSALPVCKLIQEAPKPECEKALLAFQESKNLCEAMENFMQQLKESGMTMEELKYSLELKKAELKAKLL
UniProt P00742: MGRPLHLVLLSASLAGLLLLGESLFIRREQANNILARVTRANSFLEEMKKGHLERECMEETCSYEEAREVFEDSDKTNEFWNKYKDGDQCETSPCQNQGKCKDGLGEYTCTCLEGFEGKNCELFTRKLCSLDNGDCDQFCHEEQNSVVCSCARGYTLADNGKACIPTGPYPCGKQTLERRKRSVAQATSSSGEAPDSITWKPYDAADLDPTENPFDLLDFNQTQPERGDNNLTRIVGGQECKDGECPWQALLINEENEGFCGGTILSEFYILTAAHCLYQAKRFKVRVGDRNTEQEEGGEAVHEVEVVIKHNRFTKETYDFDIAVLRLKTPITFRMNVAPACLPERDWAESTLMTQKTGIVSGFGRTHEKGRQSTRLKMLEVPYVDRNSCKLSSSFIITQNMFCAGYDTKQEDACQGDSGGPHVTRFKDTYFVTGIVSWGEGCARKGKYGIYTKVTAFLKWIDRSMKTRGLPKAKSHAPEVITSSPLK

Tests used:
[1] = target: Protein S-C4b-binding protein complex in fractionated hirudin-plasma (human) (UniProt P07225+P04003+P20851); test: ligand blot from native 4-15% PAGE of Sephacryl-300 fractions of hirudin-plasma
[2] = target: T1, monomeric protein S in plasma (human, UniProt P07225 42-676); test: as above
T1 construct: mature; also called monomers
T1 sequence (looked up): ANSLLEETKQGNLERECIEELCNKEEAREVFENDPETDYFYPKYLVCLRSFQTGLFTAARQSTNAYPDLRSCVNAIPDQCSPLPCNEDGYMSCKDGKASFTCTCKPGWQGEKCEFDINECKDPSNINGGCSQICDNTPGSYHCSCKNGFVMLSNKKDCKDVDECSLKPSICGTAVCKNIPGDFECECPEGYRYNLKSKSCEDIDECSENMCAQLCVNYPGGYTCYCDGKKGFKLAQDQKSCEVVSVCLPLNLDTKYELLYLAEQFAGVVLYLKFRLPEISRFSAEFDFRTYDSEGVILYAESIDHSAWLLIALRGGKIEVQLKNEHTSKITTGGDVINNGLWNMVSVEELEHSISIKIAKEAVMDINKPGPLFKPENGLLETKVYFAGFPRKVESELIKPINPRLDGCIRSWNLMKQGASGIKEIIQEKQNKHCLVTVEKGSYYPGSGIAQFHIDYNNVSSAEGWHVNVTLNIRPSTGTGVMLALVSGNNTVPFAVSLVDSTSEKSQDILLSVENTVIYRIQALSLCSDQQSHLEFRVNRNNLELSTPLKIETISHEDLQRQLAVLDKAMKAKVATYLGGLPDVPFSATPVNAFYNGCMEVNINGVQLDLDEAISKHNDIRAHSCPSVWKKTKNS
Method: (§1) Gel filtration - - - Purified protein S preparations or hirudin-plasma (200 μl ) were fractionated on a 1×30 cm Superose-6 HR column using Fast Performance Liquid Chromatography (Amersham-Pharmacia, Piscattaway, N.J.) at a flow rate of 0.4 ml/min in Hepes-buffered saline (HBS). Hirudin and citrated plasmas (300 ul) were each mixed with 700 μl of 50 mM benzamidine and fractionated on a 1.6×60 cm Sephacryl-300 column at a flow rate of 0.4 ml/min in Tris-buffered saline. Fractions were analyzed for protein S antigen by ELISA, for protein S multimers by native PAGE, and for PS-direct. ELISAs were also performed on the fractions for FV, FX, and C4BP antigens
(§2) To further separate protein S forms in plasma, hirudin-plasma and citrated plasma were each subjected to gel filtration on a larger column (FIGS. 8B and 8C). […] Biotin-FXa could ligand blot (Heeb, et al. Protein S binds to and inhibits factor Xa. Proc Natl Acad Sci USA. 1994;91:2728-2732) to PS-C4BP, multimeric and monomeric protein S in fractionated hirudin plasma (FIG. 8C).

[3] = target: T2, multimeric protein S in plasma (human, UniProt P07225 42-676); test: as above
T2 construct: mature; also called protein S multimers in plasma; putative protein S multimers
T2 sequence (looked up): T1 sequence (looked up)
Method: as §1, §2

[4] = target: T3, immunoaffinity-purified recombinant protein S, P07225; test: self-association; Superose-6 gel filtration and native 8% PAGE; conditions: remark: other sources report otherwise
T3 chain: T1 sequence (looked up)

[5] = target: T3, immunoaffinity-purified recombinant …; test: self-association; sedimentation velocity analytical ultracentrifugation; conditions: remark: other sources report otherwise
[6] = target: T4, monomeric protein S in plasma (human), P07225; test: self-association; immunoblot of plasma from native PAGE; conditions: remark: other sources report otherwise
T4 chain: T1 sequence (looked up)

## Biotin-FXa (from UniProt P00742 41-179; P00742 235-488) (enzyme)
[1]
  binding: binds
[2]
  binding: binds
[3]
  binding: binds

B1: immunoaffinity-purified recombinant protein S, P07225 42-676 (protein, UniProt P07225 42-676, looked up)
chain: T1 sequence (looked up)
[4]
  binding: binds
[5]
  binding: binds

B2: monomeric protein S in plasma, P07225 42-676 (protein, human, UniProt P07225 42-676, looked up)
chain: T1 sequence (looked up)
[6]
  binding: binds
